The list shows a part of the results.
Target: T1, OsSMF1 (Oryza sativa, UniProt Q6ZLB0 1-436)
T1 sequence: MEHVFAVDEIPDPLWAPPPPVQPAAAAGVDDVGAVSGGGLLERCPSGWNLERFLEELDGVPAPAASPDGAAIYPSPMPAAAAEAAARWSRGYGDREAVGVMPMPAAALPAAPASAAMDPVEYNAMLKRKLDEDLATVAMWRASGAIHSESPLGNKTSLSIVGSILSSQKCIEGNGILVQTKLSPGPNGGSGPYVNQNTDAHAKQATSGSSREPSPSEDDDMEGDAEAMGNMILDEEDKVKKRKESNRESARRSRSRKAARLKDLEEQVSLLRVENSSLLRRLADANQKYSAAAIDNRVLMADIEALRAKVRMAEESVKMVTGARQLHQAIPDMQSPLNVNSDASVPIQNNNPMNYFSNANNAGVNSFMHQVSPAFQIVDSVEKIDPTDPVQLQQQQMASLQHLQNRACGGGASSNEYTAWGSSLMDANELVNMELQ
Assay: protein-binding microarray (RPBM); PBS, 2% BSA, 51.3 ng/ul salmon testes DNA, 50 uM zinc acetate, 200 nM TF, 25 C, 1 h; high values mean tight binding
Settings: protein: recombinant; tags: N-terminal polyhistidine and DsRed monomer fusion (pET32a); chain copies: 2; label: CyDye5-dUTP incorporated in the synthesized complementary strand; 3' TTTTT single-stranded linker to array surface; dsDNA, one strand shown
Method in brief: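 Per-feature fluorescence intensity (arbitrary units), read on an Axon 4000B scanner, is the binding signal. Transcription factors carrying an N-terminal polyhistidine tag and DsRed fusion were expressed in E. coli BL21-CodonPlus and purified on Ni–NTA. A custom Agilent array, made double-stranded by primer extension with Cy5-dUTP and blocked with 2% BSA, was incubated with 200 nM protein in PBS, 2% BSA, salmon testes DNA and 50 µM zinc acetate at 25 °C for 1 h and then washed.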

Row | Sequence | binding signal
1 | CCATCCTTGCGCCGCGCCCCGACGAGCCGTCGCCACGTGGCGGAGTCACCTAGTGCAG | 21200 fluorescence intensity (a.u.)
2 | AGAACATTACTAAAATTGACCTAGTCATGAAATTCACTCCCGGAGTCACCTAGTGCAG | 3310 fluorescence intensity (a.u.)
3 | TATTAATAGTCAACGTTTAATATTTATAATTAGTGTCCAACGGAGTCACCTAGTGCAG | 4430 fluorescence intensity (a.u.)
4 | GAAACAATGGTCAGTAGTCACCAGTTTTGCCCTTAGATGACGGAGTCACCTAGTGCAG | 3360 fluorescence intensity (a.u.)
5 | TTAATACAAATCCGTTGCATCACACGAGTCATATGCTAGTCGGAGTCACCTAGTGCAG | 5010 fluorescence intensity (a.u.)
6 | CTCCTTAAACTTGATGACTCCTTATATGGACAGTTTTAGACGGAGTCACCTAGTGCAG | 3940 fluorescence intensity (a.u.)
7 | TTGCGAATAGTGCTAGAAATACTTACGTGACTTTGCAACACGGAGTCACCTAGTGCAG | 3160 fluorescence intensity (a.u.)
8 | AGTAATCTGGAGCGGGAGGTGGGGCTCCACTCCACGTACCCGGAGTCACCTAGTGCAG | 3460 fluorescence intensity (a.u.)
9 | TCATCCGCCTCTCACCGATGCGTGTACACAGAGAAAGCGTCGGAGTCACCTAGTGCAG | 3750 fluorescence intensity (a.u.)
10 | CATTGCCATGGTTTCACCGAGAGCGTGGGCATCCATGGAACGGAGTCACCTAGTGCAG | 3430 fluorescence intensity (a.u.)
11 | GGGCCTTCACGAATCAGGAGCACACGTTGGATGTGTGGCTCGGAGTCACCTAGTGCAG | 3280 fluorescence intensity (a.u.)
12 | AGTACCGGTATTCGCGAAGGGAATTGTAAAGTTGGGGTAGCGGAGTCACCTAGTGCAG | 11500 fluorescence intensity (a.u.)
13 | AGCCAGTACGCAGCCATAATCAGCAAGAGGATCAGGTTTGCGGAGTCACCTAGTGCAG | 3260 fluorescence intensity (a.u.)
14 | CACAACTGAATCCTCTTGACTCACCATTAATGTAGAGGCTCGGAGTCACCTAGTGCAG | 4960 fluorescence intensity (a.u.)
15 | ATATTTCACTACCATAGACACTAAAATTGGAGACGTCACTCGGAGTCACCTAGTGCAG | 3820 fluorescence intensity (a.u.)
16 | ACCAATAACCTATTGTCCTCTAGTCATACCACGTAATCACCGGAGTCACCTAGTGCAG | 4540 fluorescence intensity (a.u.)
17 | GTCTTTCCGAGTGGTGGCGGCGGTGGCTGATCTGCTTGTGCGGAGTCACCTAGTGCAG | 3420 fluorescence intensity (a.u.)
18 | CGCCTCCTCCAAGATCTTCCATCGTAGGTCGTCACCCACGCGGAGTCACCTAGTGCAG | 3440 fluorescence intensity (a.u.)
19 | GACGGATTGCTTTGTGCATTGTCAATCAGTACATCCTCTTCGGAGTCACCTAGTGCAG | 3610 fluorescence intensity (a.u.)
20 | AAACCAGCGACACGTTCCTGTCTTCCTCATATTTACTAAACGGAGTCACCTAGTGCAG | 3300 fluorescence intensity (a.u.)
21 | GCAGGTTTGCAAGCGTGGTACGTGTTTACCTAAACTCTTGCGGAGTCACCTAGTGCAG | 3360 fluorescence intensity (a.u.)

Numbers 14 through 15 from above:
Row | Sequence | binding signal
14 | CACAACTGAATCCTCTTGACTCACCATTAATGTAGAGGCTCGGAGTCACCTAGTGCAG | 4960 fluorescence intensity (a.u.)
15 | ATATTTCACTACCATAGACACTAAAATTGGAGACGTCACTCGGAGTCACCTAGTGCAG | 3820 fluorescence intensity (a.u.)

(further entries)

Row | Sequence | binding signal
22 | AAAATGCCATTTCCACCACGTGGGTGAGTGCGCGCGCGGGCGGAGTCACCTAGTGCAG | 4270 fluorescence intensity (a.u.)
23 | GCAAAAGATCGAACACGTTGTGTGCGTGTGTGCGCGCGCCCGGAGTCACCTAGTGCAG | 3200 fluorescence intensity (a.u.)
24 | GCTTGAGAGGAAGGGGATAAGCTAACCGGCATATATGTCTCGGAGTCACCTAGTGCAG | 3340 fluorescence intensity (a.u.)
25 | TACTATAGACTAGCAAATGCCAAATGACAAATTGCCAAGTCGGAGTCACCTAGTGCAG | 15800 fluorescence intensity (a.u.)
26 | AATTCTTCGGGTCCTGGTGTTGATGATTCACATCTTTGGCCGGAGTCACCTAGTGCAG | 4920 fluorescence intensity (a.u.)
27 | ATGGTGGAGAAGGTGACGATGACACGAGGTGATCTGGATCCGGAGTCACCTAGTGCAG | 3680 fluorescence intensity (a.u.)
28 | GGAGAAATCAGAAATCGGCGTCTCCACCTCATCGCCCATCCGGAGTCACCTAGTGCAG | 4890 fluorescence intensity (a.u.)
29 | GTTTGAGATGTGTAATAAAGGATCGATCTTGTTGACGATCCGGAGTCACCTAGTGCAG | 3530 fluorescence intensity (a.u.)
30 | AGAACATGCTGCTTGTTGTGACTGCACCGACGTCTTTCGTCGGAGTCACCTAGTGCAG | 3140 fluorescence intensity (a.u.)
31 | GCTGTCCCTATATACACAACATTTGACCAAGATGATGACGCGGAGTCACCTAGTGCAG | 3480 fluorescence intensity (a.u.)
32 | ACTAAGACCGAGCTCATTGGAGGAGCTGATGTGTACATGCCGGAGTCACCTAGTGCAG | 5620 fluorescence intensity (a.u.)
33 | GAACGGCGCTCGCCGCCATCACCGACGGTAACGCGCATGCCGGAGTCACCTAGTGCAG | 27900 fluorescence intensity (a.u.)
34 | CTTGACGGGCTAGGGCCATAACTGAGCATTGCCACGTCAGCGGAGTCACCTAGTGCAG | 14600 fluorescence intensity (a.u.)
35 | AGGCAACGACACGGCATGCGCACCTGTGTCCTTGTGGTTGCGGAGTCACCTAGTGCAG | 4640 fluorescence intensity (a.u.)
36 | AACTTCATATGTGTAATAAGAGATTTGTTGACAGCCTTGTCGGAGTCACCTAGTGCAG | 3150 fluorescence intensity (a.u.)
37 | CTACTTCCAGTTCCCAACCATGTTTATGGCCAAACATCACCGGAGTCACCTAGTGCAG | 33800 fluorescence intensity (a.u.)
38 | GCACATGTGTCGCCGTCGTGTCGGCCCCATTCTCCGGGCGCGGAGTCACCTAGTGCAG | 3690 fluorescence intensity (a.u.)
39 | GGCCTCGCCCATGCCCGGGCCCACACGTCAGCGGGACACCCGGAGTCACCTAGTGCAG | 12500 fluorescence intensity (a.u.)
40 | AGTGCCTATGTGGCGTTGACGTGGCGCTTACGTGGCAATTCGGAGTCACCTAGTGCAG | 27500 fluorescence intensity (a.u.)
41 | ATTATATTGATCAATGACTCTGCTACTACTGCTCCCATATCGGAGTCACCTAGTGCAG | 3720 fluorescence intensity (a.u.)
42 | CACGCACGTACATCGCGCGCGCCACGCCACGCCACGCCGCCGGAGTCACCTAGTGCAG | 8370 fluorescence intensity (a.u.)
